Chains of the proteins cited; added tags and fusions are not shown. Lines headed by an entry give the natural chain unless they say otherwise; changes in a name come on top.
UniProt O05574: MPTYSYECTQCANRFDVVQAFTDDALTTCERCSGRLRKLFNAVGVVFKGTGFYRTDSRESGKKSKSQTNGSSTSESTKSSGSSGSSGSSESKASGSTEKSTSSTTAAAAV
UniProt P9WMJ9: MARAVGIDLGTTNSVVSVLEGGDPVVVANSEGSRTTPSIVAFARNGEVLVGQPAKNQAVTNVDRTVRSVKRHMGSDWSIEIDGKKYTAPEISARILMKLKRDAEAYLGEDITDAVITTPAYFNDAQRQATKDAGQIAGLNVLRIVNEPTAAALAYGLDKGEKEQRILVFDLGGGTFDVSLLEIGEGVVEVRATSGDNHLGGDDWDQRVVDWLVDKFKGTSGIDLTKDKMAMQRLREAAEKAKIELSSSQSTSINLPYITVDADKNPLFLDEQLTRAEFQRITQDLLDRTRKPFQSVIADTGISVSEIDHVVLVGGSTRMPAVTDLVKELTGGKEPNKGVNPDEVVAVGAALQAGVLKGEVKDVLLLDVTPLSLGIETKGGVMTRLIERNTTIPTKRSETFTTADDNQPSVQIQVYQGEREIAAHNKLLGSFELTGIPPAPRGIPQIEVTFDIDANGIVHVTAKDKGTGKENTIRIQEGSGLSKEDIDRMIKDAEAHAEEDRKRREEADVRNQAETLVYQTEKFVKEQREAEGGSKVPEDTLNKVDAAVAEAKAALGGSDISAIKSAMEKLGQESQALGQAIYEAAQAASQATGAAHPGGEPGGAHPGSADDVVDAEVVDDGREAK

In paper PMC7448276:

Molecular target: Ruc with a C-terminal hexahistidine-FLAG tandem affinity purification tag (RucTAP) (M. tuberculosis) (UniProt O05574)
Experiment: affinity purification with mass spectrometry

In the case of “M. tuberculosis DnaK (from UniProt P9WMJ9 1-625)”, the binding is reported as “binds”.

Results are given in words; binding and its absence hold for the method and conditions named. Binding seen in cells or lysates may run through a third protein. These calls come from enrichment with a bait or labelling near it, and not all partners need be listed.
